The target in this assay is Collagen type I (mouse) (UniProt P11087+Q01149). In words: surface force apparatus; collagen I-coated mica surfaces; albumin (11 mg/mL) or γ-globulin (7 mg/mL) injected and left to adsorb for 36 min, PBS pH 7.4, 25 °C; thickness of the adsorbed layer from the shift of the hard wall; both purified.

Protein sequences, listed by entry. Tags and fused reporters are not part of them. Lines headed by an entry give the natural chain unless they say otherwise; changes in a name come on top. Residues count along the entry.
UniProt P11087: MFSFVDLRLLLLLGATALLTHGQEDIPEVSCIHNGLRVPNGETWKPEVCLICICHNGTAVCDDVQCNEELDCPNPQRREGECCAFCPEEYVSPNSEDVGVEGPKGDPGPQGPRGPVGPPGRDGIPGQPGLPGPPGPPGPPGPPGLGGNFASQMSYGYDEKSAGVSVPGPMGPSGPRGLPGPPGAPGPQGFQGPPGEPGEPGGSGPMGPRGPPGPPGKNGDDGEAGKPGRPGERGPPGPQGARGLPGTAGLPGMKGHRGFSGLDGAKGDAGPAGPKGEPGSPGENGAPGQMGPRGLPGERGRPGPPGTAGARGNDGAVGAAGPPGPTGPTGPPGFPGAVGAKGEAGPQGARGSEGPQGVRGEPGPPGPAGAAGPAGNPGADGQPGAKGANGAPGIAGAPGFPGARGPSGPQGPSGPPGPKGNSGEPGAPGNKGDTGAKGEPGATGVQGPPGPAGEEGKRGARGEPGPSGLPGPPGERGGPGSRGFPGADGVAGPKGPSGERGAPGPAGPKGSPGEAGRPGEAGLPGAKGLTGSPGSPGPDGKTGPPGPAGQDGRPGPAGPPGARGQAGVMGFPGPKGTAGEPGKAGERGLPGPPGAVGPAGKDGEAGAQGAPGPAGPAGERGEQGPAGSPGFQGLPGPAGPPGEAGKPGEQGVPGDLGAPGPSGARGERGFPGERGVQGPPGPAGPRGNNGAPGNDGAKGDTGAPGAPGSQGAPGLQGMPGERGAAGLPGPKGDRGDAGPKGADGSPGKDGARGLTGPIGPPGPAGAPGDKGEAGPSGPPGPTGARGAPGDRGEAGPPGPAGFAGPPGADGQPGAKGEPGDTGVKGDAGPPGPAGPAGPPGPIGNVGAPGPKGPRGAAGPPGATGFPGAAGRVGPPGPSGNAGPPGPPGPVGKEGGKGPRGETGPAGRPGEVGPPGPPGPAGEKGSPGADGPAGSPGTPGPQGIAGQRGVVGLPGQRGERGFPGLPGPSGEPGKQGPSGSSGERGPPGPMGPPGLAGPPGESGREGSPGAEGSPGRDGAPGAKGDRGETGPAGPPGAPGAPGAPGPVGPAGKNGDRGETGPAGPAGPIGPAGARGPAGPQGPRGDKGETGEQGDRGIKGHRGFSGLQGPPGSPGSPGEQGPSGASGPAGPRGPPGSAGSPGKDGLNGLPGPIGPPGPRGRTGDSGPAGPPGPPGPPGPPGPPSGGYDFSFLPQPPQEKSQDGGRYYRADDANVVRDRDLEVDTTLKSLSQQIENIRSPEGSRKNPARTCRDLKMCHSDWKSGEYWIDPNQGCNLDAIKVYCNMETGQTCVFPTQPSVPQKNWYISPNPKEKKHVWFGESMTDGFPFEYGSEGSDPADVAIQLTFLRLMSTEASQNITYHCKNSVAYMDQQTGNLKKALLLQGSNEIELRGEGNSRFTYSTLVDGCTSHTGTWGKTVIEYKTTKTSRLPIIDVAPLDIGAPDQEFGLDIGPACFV
UniProt Q01149: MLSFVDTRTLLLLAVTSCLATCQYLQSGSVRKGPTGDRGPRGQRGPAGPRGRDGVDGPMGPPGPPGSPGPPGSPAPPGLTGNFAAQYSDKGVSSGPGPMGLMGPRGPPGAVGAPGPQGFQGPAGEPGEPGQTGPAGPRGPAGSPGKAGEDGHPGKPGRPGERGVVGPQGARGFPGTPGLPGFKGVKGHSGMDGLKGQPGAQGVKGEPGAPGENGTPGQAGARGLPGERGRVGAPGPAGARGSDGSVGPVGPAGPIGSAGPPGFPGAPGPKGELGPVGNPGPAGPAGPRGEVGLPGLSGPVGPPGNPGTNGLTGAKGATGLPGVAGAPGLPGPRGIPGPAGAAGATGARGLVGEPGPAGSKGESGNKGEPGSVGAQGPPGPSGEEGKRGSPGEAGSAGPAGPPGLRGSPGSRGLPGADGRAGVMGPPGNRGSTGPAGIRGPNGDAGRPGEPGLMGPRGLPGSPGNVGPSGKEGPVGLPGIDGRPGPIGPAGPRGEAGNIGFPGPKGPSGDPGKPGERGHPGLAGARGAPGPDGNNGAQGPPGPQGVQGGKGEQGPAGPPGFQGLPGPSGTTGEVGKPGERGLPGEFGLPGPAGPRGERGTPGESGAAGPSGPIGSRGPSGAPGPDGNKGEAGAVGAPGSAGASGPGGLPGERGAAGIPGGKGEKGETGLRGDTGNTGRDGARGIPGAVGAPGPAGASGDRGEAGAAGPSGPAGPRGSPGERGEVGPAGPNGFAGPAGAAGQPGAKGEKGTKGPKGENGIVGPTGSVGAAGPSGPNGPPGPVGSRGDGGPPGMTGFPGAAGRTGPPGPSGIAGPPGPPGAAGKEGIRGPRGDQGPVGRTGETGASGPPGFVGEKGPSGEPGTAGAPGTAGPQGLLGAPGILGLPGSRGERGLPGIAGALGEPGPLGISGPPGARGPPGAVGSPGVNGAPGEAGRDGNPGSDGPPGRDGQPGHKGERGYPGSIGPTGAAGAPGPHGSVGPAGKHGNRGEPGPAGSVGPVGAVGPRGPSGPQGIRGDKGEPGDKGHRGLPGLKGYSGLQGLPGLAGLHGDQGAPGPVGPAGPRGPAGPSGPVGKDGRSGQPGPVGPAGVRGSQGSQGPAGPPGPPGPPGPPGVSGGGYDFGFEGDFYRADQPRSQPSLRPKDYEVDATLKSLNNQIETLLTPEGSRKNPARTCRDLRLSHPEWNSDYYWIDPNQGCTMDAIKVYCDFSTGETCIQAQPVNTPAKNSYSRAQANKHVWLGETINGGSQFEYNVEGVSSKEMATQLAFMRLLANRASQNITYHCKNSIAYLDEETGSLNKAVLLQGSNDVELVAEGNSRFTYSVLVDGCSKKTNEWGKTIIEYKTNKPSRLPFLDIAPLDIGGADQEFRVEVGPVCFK
UniProt P02769, residues 25-607: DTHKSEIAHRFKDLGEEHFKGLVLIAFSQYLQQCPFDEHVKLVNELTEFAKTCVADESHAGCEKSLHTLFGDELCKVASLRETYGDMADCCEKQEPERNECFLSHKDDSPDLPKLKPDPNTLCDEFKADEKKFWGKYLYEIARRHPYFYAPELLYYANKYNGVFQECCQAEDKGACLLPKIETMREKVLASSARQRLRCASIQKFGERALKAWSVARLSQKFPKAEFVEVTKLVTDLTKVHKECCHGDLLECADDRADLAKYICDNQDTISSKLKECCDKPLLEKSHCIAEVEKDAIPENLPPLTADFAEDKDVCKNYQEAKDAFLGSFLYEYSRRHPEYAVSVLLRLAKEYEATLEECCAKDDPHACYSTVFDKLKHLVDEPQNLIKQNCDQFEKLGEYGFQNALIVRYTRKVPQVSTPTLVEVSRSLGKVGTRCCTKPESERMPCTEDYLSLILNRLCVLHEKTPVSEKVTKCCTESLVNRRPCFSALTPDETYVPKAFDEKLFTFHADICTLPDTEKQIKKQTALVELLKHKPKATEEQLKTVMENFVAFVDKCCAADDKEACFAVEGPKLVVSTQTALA

Results are given in words; binding and its absence hold for the method and conditions named. Some entries that bind do so weakly or less than the wild type.

We go through one substance from PMC8638261.

For “Bovine serum albumin (from UniProt P02769 25-607)”, the binding result is listed as “binds”.
